Results taken from publication doi:10.1101/2021.04.12.439585.
Results are given in words; binding and its absence hold for the method and conditions named. In cells and extracts the contact can be indirect. Some binding calls cover weakened binding; strength is not graded here.

The chains behind the UniProt entries cited, without tags or fusion partners.
UniProt P03427: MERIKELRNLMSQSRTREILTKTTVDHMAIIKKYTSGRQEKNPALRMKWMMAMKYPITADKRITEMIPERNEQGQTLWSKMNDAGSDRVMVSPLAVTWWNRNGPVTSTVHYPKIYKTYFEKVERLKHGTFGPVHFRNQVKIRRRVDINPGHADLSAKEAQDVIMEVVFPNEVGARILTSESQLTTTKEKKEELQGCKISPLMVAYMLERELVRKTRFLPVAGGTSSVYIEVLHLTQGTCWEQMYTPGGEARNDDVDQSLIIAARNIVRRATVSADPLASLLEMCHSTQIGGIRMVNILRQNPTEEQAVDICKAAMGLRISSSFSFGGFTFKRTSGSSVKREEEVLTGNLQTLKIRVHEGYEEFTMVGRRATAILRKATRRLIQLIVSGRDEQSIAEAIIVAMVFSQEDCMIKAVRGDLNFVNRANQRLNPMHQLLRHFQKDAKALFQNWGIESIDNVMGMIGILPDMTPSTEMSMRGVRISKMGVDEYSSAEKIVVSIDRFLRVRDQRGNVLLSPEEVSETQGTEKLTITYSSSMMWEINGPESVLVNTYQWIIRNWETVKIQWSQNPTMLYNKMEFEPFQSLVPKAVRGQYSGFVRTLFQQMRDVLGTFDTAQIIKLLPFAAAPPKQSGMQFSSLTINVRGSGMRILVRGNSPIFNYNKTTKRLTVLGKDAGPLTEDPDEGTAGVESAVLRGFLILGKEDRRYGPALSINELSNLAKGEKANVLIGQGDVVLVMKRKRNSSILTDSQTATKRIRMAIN
UniProt P15682: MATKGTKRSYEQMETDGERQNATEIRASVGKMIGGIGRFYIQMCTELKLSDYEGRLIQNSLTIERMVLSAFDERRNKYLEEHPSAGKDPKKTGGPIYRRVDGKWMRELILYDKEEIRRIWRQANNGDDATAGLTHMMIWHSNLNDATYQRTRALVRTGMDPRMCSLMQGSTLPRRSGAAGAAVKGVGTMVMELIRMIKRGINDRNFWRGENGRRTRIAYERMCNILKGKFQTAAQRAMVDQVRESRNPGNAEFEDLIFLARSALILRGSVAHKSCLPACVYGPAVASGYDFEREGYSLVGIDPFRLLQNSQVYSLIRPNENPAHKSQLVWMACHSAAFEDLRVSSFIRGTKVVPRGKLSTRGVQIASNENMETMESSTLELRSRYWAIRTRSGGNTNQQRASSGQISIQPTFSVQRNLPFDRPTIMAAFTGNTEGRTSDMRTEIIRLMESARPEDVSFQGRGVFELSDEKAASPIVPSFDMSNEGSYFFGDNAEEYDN

Molecular target: PB2-FLAG, wild type (influenza A/WSN/33) (influenza A virus A/WSN/33 (A/H1N1/WSN/1933)) (UniProt P03427)
Test: co-IP

NP-V5 (nucleoprotein, influenza A/WSN/33) (from UniProt P15682 1-498)
binding: binds
